Source: paper PMC10279527, “Structural basis of metabolite transport by the chloroplast outer envelope channel OEP21” (Nature Structural & Molecular Biology, 2023)
These are yes or no findings as the source states them, for the method shown. Some results given as binding are weak or reduced against the parent protein; the word gives no strength.

Target: OEP21, endogenous, in chloroplast outer envelope vesicles (garden pea) (UniProt Q9SM57)
Assay: native gel or EMSA; Blue Native PAGE (7.5-15% gel) of chloroplasts enriched with outer envelope vesicles, solubilised with 1% DDM; second dimension SDS-PAGE; immunoblot against OEP21

OEP21, endogenous, in chloroplast outer envelope vesicles (from UniProt Q9SM57 1-177)
binding: binds
